Experimental data as given in PMC9673352.
No constants are given. Whether binding was seen depends on the method and setting. For part of these data: Binding can be weak; no strength is given. For part of these data: Binding seen in cells or lysates may run through a third protein. For part of these data: Tags and fused reporters may be left off the sequences shown.

Experiments:
[1] = target: T1, GBD-Ckb2 (S. cerevisiae) (UniProt P38930); assay: two-hybrid; strain Y190; CK2 subunits fused to GBD, IN or IN regions fused to GAD; SC lacking Leu, Trp, His with 0.2 mM 3-Amino-1,2,4-triazole, 2 days at 30 °C; LacZ reporter by X-Gal overlay
T1 sequence: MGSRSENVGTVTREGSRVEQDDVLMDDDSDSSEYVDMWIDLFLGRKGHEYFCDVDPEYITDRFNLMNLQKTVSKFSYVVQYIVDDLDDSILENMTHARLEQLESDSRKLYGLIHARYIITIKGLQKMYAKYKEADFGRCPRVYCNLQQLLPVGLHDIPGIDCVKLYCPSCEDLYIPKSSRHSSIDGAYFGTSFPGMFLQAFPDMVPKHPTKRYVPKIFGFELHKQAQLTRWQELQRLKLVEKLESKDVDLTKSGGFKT

[2] = target: T2, GBD-Cka2 (S. cerevisiae) (UniProt P19454); assay: as above
T2 sequence: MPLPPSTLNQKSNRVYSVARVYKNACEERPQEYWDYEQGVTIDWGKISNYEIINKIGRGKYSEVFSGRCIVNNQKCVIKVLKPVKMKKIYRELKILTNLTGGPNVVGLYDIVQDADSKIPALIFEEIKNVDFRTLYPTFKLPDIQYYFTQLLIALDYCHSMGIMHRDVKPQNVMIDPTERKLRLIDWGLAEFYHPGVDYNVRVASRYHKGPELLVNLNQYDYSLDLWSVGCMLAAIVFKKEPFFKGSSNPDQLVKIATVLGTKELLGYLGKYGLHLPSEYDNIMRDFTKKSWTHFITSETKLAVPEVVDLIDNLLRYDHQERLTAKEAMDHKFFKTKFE

[3] = target: T3, TAP-YKR011C (S. cerevisiae) (UniProt Q02209); assay: co-IP; whole-cell extracts of exponentially growing yeast; TAP-tagged proteins precipitated on IgG magnetic beads, 2 h at 4 °C, IP buffer 50 mM HEPES-KOH pH 7.5, 300 mM NaCl, 1 mM EDTA, 0.05% NP40; Western blot
T3 sequence: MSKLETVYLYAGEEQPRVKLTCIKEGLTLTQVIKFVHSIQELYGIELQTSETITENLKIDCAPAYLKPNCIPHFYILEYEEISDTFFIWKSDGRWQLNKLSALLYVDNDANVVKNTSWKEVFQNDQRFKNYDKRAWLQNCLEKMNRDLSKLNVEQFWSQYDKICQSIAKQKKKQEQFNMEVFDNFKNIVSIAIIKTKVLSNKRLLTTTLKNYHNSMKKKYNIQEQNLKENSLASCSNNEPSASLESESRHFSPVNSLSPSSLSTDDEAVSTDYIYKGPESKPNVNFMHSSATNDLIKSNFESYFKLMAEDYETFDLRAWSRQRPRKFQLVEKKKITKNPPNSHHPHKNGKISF

[4] = target: T4, TAP-tagged Cka2 (S. cerevisiae) (UniProt P19454); assay: as above
T4 sequence: T2 sequence

[5] = target: T5, TAP-tagged Ckb1 (S. cerevisiae) (UniProt P43639); assay: as above
T5 sequence: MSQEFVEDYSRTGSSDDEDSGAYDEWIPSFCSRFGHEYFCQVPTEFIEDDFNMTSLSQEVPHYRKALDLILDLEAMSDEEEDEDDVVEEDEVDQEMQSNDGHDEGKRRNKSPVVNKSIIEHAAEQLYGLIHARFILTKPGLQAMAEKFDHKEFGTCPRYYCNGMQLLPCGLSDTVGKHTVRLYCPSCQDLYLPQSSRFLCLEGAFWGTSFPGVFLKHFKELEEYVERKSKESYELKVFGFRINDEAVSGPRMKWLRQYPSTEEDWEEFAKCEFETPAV

[6] = target: T6, TAP-tagged Ckb2 (S. cerevisiae) (UniProt P38930); assay: as above
T6 sequence: T1 sequence

With “C-terminal fragment of IN (amino acids 578-635) fused to GAD (S. cerevisiae) (domain or fragment)” as the substance, how does the binding [1] read?
The binding was “no binding”.

Which binding [1] does the source give for “Full-length Ty1 IN with a C-tag at its C-terminus, fused to the GAL4 activating domain (S. cerevisiae) (enzyme)” here?
Its binding is “binds”.

And the binding [2]?
The binding was “no binding”.

Which binding [1] does the source give for “Full-length Ty1 IN without C-tag, fused to the GAL4 activating domain (S. cerevisiae) (enzyme)” here?
Its binding is “no binding”.

How did the binding [1] turn out when “GAD-IN(1-578) (S. cerevisiae) (domain or fragment)” was run?
Its binding is “binds”.

How did the binding [1] turn out when “GAD-IN(386-511) (S. cerevisiae) (domain or fragment)” was run?
Its binding is “binds”.

“Ty1 integrase expressed from a functional Ty1 element (processed from Gag-Pol) (S. cerevisiae) (enzyme)” was tested. Which binding [3] did it give?
Its binding is “no binding”.

What about the binding [4] of the same substance?
Its binding is “binds”.

And the binding [5]?
Its binding is “binds”.

For “Ty1 integrase with a C-terminal histidine-biotin-histidine (HBH) tag (S. cerevisiae) (enzyme)”, which binding [4] is on record?
The binding was “binds”.

What about the binding [5] of the same substance?
The binding was “binds”.

What about the binding [6] of the same substance?
The binding was “binds”.
